# Assay results from PMC2672601.
# Protein sequences, listed by entry. Tags and fused reporters are not part of them. Residues count along the entry.
# UniProt Q80W68, residues 48-789: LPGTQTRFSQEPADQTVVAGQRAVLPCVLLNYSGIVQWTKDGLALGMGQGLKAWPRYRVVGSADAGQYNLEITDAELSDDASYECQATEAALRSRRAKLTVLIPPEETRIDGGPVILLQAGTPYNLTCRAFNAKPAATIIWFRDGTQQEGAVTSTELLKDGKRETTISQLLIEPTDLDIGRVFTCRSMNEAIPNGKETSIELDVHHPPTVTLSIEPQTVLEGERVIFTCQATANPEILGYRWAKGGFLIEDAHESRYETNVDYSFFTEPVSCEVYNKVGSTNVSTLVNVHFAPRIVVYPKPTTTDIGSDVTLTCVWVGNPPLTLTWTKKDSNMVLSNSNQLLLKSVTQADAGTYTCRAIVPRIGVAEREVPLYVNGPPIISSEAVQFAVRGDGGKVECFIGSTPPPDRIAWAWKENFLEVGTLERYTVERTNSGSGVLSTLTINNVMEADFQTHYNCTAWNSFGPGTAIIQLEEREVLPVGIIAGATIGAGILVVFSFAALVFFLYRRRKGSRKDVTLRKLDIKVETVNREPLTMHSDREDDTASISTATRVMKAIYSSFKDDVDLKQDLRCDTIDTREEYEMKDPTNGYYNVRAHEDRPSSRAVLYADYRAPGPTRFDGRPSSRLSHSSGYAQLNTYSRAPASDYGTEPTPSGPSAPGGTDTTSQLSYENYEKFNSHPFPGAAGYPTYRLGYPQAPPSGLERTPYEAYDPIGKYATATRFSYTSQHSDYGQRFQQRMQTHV
# UniProt Q8CHC4: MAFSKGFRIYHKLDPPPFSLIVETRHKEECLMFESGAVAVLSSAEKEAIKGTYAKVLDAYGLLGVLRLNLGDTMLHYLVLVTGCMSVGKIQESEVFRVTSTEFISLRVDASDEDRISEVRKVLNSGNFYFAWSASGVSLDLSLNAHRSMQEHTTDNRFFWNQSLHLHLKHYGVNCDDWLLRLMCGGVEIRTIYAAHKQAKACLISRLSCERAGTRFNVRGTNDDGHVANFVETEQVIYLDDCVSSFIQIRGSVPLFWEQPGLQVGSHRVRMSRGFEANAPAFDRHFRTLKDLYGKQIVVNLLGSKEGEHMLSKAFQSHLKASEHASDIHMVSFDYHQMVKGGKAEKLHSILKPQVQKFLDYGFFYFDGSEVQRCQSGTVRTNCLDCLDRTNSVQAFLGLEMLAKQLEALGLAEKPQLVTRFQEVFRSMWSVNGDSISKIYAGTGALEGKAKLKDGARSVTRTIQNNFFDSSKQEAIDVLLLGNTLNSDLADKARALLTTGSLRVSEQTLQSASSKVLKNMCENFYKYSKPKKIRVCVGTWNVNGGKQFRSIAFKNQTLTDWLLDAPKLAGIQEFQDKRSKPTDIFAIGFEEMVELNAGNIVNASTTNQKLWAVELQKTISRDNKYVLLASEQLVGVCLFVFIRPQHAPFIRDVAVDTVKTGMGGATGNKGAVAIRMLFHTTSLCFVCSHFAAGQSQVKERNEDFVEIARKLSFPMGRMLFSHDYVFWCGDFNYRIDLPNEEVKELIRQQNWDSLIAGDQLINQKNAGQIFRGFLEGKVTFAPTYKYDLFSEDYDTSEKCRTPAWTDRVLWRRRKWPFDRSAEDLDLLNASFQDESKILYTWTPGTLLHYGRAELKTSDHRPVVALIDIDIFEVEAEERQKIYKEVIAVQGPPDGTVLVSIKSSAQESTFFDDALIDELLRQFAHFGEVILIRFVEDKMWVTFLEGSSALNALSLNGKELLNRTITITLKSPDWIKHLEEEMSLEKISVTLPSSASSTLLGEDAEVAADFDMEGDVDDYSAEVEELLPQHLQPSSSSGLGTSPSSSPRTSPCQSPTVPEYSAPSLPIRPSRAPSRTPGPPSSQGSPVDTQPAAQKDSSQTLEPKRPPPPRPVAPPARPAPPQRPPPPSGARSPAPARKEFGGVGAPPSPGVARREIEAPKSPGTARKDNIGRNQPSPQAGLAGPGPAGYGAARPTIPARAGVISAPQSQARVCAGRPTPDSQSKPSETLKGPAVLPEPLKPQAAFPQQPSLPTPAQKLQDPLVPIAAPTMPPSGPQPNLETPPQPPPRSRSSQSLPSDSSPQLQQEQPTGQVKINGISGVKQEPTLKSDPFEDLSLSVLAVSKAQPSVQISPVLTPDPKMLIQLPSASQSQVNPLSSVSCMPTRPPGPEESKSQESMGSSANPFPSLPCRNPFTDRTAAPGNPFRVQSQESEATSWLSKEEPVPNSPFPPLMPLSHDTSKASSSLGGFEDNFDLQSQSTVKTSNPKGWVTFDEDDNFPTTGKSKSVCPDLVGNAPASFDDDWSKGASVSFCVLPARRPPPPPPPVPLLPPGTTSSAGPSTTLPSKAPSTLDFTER
# UniProt P28652: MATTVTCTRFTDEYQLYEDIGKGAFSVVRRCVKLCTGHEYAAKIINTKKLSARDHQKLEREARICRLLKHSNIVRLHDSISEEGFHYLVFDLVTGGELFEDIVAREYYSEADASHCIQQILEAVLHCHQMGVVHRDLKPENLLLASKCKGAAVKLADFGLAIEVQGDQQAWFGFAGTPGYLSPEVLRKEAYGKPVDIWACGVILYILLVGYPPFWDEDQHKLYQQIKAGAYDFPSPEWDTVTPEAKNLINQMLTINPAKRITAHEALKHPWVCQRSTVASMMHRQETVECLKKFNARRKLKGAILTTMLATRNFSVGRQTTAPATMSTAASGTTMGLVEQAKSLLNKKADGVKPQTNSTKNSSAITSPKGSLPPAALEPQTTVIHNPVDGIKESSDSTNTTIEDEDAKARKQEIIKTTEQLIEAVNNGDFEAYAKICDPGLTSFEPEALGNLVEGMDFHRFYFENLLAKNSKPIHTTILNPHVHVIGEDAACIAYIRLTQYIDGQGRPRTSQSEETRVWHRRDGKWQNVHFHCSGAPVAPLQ
# UniProt P28828, residues 21-1452: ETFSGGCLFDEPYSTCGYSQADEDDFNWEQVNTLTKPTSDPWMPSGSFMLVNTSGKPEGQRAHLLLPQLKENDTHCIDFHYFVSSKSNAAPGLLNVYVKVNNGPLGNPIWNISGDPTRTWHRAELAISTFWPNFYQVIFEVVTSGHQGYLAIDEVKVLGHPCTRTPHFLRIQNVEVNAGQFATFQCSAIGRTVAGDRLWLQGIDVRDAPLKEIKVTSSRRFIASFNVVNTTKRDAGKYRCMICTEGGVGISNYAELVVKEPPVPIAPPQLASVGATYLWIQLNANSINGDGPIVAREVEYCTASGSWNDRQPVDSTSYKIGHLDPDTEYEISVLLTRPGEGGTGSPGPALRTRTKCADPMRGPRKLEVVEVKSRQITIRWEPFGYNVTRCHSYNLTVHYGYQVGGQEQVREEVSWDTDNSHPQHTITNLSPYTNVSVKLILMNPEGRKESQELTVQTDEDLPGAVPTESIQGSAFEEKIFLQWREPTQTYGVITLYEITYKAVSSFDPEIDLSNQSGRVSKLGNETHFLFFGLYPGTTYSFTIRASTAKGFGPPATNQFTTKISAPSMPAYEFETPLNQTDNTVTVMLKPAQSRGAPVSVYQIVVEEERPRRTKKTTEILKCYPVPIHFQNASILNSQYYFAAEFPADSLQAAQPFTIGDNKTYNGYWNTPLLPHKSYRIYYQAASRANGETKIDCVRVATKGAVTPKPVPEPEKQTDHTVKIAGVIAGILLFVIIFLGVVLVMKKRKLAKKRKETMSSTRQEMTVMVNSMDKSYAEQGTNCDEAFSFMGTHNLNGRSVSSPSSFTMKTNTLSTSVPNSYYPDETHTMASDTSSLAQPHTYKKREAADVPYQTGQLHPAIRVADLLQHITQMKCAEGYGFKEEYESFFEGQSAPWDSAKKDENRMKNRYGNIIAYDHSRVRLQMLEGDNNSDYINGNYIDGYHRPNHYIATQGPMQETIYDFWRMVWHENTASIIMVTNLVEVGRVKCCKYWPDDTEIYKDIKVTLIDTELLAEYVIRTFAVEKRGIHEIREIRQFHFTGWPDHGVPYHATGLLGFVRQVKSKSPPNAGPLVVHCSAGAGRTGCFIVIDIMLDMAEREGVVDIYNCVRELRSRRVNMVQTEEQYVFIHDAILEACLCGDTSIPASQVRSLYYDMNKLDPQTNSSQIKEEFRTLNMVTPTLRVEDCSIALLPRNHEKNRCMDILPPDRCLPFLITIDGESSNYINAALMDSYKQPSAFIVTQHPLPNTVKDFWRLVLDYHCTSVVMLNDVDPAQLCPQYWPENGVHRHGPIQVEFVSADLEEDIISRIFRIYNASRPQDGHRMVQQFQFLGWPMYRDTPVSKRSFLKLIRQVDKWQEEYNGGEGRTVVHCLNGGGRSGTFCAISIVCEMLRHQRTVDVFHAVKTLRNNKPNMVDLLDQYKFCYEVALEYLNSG
# UniProt Q8BKX1: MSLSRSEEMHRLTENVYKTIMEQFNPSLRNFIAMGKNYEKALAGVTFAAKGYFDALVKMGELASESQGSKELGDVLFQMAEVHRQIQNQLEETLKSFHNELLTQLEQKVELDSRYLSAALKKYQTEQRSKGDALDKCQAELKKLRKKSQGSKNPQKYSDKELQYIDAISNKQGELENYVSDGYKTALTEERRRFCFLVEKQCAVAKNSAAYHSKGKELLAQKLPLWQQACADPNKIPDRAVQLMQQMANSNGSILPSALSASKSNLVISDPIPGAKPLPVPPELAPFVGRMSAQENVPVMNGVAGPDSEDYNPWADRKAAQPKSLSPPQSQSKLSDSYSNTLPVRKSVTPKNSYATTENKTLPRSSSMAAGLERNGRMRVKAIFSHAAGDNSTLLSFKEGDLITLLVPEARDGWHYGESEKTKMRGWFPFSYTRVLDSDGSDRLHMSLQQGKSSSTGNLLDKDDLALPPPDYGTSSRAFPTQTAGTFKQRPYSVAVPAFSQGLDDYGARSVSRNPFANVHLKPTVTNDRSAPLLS
# UniProt Q80UW5: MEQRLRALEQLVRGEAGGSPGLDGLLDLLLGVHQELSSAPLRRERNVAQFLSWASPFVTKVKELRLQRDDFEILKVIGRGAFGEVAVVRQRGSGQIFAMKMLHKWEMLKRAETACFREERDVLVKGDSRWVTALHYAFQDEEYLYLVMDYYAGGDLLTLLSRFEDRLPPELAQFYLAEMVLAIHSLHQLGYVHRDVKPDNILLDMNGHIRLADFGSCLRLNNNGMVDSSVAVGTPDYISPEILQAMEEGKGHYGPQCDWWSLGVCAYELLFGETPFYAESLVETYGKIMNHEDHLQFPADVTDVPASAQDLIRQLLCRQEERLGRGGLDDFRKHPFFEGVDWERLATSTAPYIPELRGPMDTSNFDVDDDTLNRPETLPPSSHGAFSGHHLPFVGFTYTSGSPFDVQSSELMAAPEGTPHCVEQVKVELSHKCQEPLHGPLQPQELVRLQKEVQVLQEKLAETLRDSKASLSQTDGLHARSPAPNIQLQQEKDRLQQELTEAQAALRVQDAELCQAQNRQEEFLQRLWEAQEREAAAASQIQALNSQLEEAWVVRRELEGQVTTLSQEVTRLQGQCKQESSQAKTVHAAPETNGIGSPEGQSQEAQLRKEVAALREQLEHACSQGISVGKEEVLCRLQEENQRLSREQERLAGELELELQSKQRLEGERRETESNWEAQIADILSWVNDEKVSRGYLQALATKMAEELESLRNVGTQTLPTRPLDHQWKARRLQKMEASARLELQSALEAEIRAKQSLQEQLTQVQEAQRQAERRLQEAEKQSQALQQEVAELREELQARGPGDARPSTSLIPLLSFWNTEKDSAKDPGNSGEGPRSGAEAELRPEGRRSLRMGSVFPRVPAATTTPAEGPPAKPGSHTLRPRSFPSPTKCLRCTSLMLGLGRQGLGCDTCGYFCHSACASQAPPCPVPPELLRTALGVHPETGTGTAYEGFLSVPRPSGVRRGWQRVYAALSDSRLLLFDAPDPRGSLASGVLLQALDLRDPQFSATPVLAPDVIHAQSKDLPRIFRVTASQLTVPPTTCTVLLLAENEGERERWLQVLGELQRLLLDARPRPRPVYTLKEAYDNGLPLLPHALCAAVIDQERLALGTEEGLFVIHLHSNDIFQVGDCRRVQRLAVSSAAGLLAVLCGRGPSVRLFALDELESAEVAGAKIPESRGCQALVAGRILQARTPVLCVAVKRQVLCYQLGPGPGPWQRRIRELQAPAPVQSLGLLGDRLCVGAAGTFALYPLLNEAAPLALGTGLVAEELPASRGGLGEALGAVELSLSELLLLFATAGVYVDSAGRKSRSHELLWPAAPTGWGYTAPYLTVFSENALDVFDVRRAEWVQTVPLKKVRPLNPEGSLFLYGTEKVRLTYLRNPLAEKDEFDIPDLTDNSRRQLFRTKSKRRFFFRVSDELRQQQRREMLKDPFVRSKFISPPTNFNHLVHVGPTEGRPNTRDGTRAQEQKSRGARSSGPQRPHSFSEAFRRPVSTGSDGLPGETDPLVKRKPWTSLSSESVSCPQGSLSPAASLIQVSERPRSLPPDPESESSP
# These are yes or no findings as the source states them, for the method shown. In cells and extracts the contact can be indirect. These calls come from enrichment with a bait or labelling near it, and not all partners need be listed. A no says only that the protein was not detected with the bait. Tags and fused reporters may be left off the sequences shown.
# Biological target: T1, VGluRδ2 (fusion between Venus and the glutamate receptor delta2, GluRδ2) (UniProt Q61625)
# T1 sequence: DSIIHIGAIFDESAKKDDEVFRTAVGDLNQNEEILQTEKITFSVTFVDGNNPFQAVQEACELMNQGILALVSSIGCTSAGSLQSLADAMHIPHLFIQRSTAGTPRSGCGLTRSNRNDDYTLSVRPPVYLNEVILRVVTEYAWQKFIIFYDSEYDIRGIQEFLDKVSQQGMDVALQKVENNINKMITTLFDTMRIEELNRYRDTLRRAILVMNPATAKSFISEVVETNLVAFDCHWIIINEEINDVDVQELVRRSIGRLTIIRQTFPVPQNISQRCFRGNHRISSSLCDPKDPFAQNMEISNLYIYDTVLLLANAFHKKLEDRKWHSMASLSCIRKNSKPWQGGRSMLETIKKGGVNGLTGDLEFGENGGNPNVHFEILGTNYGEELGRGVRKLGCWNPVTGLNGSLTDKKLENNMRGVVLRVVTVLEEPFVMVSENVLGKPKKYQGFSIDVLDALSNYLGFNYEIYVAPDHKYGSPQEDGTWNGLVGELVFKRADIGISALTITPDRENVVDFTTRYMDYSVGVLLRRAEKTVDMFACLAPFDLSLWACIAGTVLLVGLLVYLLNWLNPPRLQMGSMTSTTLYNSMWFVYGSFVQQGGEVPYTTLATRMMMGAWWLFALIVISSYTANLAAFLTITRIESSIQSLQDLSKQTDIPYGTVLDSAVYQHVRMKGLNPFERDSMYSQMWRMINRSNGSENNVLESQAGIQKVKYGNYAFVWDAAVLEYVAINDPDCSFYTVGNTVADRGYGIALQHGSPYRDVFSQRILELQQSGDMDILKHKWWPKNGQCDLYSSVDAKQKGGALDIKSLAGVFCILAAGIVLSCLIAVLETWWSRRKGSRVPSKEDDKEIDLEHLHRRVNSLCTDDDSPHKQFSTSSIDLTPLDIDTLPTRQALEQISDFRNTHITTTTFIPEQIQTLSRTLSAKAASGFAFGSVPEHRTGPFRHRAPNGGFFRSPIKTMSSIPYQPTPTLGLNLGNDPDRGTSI
# Assay: affinity purification with mass spectrometry; same anti-GFP affinity purification of pooled synaptic fractions (samples pooled from 30 and from 50 Pcp2/VGluRδ2 cerebella); SDS-PAGE, in-gel trypsin digestion, MALDI QqTOF MS and MALDI-IT MS/MS; control isolates from Pcp2/eGFP mice
row,binding,Substance
1,binds,Itpr1 (from UniProt P11881 1-2749) (receptor)
2,binds,Neph1 (from UniProt Q80W68 48-789)
3,binds,synaptojanin 1 (from UniProt Q8CHC4 1-1574) (enzyme)
4,binds,phospholipase B (mouse (endogenous in cerebellum)) (enzyme)
5,binds,Shank1 (from UniProt D3YZU1 1-2167)
6,binds,Camk2b (from UniProt P28652 1-542) (enzyme)
7,binds,Gm941 (mouse (endogenous in cerebellum))
8,binds,receptor tyrosine phosphatase RPTPmu (from UniProt P28828 21-1452)
9,no binding,GABA(A) receptor α6 (from UniProt P16305 20-453)
10,binds,BAIAP2 (from UniProt Q8BKX1 1-535)
11,binds,kinase MRCK gamma (MRCKγ) (from UniProt Q80UW5 1-1551) (enzyme)
12,binds,ABCA12 (from UniProt E9Q876 1-2595)
